Substitutions are numbered along the chain they refer to. Results are given in words; binding and its absence hold for the method and conditions named. In cells and extracts the contact can be indirect. Binding can be weak; no strength is given. Sequences can lack the tags named with a protein.
Legend:
[1] = target: T1, FLAG-AGO1^KKME/Y691E (Arabidopsis thaliana) (UniProt O04379); experiment: co-IP
T1 sequence: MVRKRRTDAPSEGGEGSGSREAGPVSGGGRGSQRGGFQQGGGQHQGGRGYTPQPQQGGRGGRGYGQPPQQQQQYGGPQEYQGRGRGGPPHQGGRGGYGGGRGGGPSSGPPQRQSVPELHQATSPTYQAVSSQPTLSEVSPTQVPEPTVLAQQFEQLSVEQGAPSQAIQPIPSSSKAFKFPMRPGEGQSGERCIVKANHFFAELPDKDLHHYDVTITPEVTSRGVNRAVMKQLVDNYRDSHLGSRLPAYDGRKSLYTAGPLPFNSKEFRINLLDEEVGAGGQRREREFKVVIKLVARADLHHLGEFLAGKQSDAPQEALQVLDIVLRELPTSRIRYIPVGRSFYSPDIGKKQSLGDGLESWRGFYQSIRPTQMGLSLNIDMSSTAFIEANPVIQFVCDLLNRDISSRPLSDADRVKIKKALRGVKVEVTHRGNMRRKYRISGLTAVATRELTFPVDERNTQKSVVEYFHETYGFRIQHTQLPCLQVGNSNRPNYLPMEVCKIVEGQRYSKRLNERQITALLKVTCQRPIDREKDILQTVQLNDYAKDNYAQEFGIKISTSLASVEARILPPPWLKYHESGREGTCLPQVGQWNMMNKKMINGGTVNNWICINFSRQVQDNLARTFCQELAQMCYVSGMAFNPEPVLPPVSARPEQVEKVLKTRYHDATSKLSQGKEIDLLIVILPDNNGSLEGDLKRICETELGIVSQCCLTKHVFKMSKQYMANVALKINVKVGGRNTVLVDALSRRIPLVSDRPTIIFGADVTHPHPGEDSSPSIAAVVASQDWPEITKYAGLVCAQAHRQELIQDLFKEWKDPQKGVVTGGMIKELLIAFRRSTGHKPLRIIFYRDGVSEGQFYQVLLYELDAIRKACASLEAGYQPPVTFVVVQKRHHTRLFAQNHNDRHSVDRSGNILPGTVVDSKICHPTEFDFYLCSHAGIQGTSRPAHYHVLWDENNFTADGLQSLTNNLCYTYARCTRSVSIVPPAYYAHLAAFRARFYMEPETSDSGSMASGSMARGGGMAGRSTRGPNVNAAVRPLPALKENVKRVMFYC

[2] = target: T2, FLAG-AGO1^Y691E (Arabidopsis thaliana) (UniProt O04379); experiment: co-IP
T2 sequence: T1 sequence with E185K, E190K, E304M, A307E

binding [1]: binds
binding [2]: binds
Substance: HSP70
